# Out of some 320,000 compounds screened, about 22,000 (6.9%) were called active. Inconclusive results, whose numbers are uncertain, are shown with a selection of clear calls. Calls come from the whole dose curve; as a rule, active = well fitted inhibition curve with a large enough effect; inconclusive = small, poorly fitted or top-dose-only effect, or another doubt; inactive = no such curve, though single readings can be large or run the other way. Potencies of inconclusive entries are doubtful fits and often do not repeat.
# Assay: Primary qHTS for delayed death inhibitors of the malarial parasite plastid, 96 hour incubation
# Settings: P. falciparum luciferase reporter growth; series mostly up to 28.7 µM
# Outline: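 Infected RBCs, 2% Hct / 0.05% parasitemia final; luciferase-reporter P. falciparum; cpd 96 h, 37 C, 5% CO2; luciferase detection reagent; luminescence.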
# Potency is the fitted concentration of half-maximal effect.
row,Structure (SMILES),Potency
1,CCOc1ccc(/C=C/C(=O)Nc2ccc(OC)cc2[N+](=O)[O-])cc1,"inconclusive: 18.5 µM [inhibitor, single point]"
2,CCOc1ccc(NC(=O)c2ccccc2OCC(=O)c2ccccc2)cc1,"inconclusive: 18.5 µM [inhibitor, single point]"
3,CC1(C)Cc2c(sc(NC(=O)COc3ccc(Cl)cc3Cl)c2C(N)=O)C(C)(C)N1,"inconclusive: 10.4 µM [inhibitor, single point]"
4,Cc1ccc(-c2nc3ncccn3c2Nc2ccc3c(c2)OCCO3)cc1,active: 11.7 µM
5,CCn1c(=O)c(C(=O)NC(C)c2ccccc2)c(O)c2ccccc21 (configuration not stated),"inconclusive: 20.8 µM [inhibitor, single point]"
6,O=C(Nc1nnc(SCc2cccnc2)s1)C1CC(=O)N(c2ccccc2)C1 (configuration not stated),inactive
7,COc1ccc(-c2ccnc(SCC(=O)c3ccc(OC)c(OC)c3)n2)cc1,inactive
8,Cc1ccc(OCc2nnc(SCC(=O)N3CCOCC3)n2C)cc1,"inconclusive: 18.5 µM [inhibitor, single point]"
9,O=C1NC(=O)N(c2ccccc2)C(=O)/C1=C\c1ccccc1[N+](=O)[O-],inactive
10,COCCNc1nnnc2c1sc1nc(N3CCOCC3)c3c(c12)CC(C)(C)OC3,"inconclusive: 18.5 µM [inhibitor, single point]"
11,CN(Cc1ccccc1)C(=O)COC(=O)c1cc(NS(=O)(=O)c2cccs2)ccc1O,"inconclusive: 2.33 µM [inhibitor, partial curve, poor fit]"
12,COc1cc(OC)c(C2N(C)c3ccccc3N2C)cc1OC,"inconclusive: 9.28 µM [inhibitor, single point]"
13,O=C(Nc1ccccc1Cc1ccccc1)c1ccccc1NS(=O)(=O)c1ccc(Cl)s1,"inconclusive: 14.7 µM [inhibitor, single point]"
14,CC(/C=C(\C)Nc1ccccc1)=Nc1ccccc1,inactive
15,CN1C(C(=O)NCc2ccc(OC(F)(F)F)cc2)CC2Cn3c(nc4cc(Cl)c(Cl)cc43)C21 (configuration not stated),"inconclusive: 18.5 µM [inhibitor, single point]"
16,Cn1nnnc1Sc1ncnc2scc(-c3ccccc3Br)c12,"inconclusive: 2.62 µM [inhibitor, partial curve]"
17,COc1ccc(/C=N/NC(=O)c2nnn(-c3nonc3N)c2-c2cccs2)cc1OC,"inconclusive: 18.5 µM [inhibitor, single point]"
18,CC(C)OCCCNC(=O)C1CC(=O)N(CCc2ccc(F)cc2)C1 (configuration not stated),"inconclusive: 1.65 µM [inhibitor, partial curve]"
19,Cc1cc(C)c(C#N)c(SCS(=O)Cc2ccccc2)n1 (configuration not stated),inactive
20,CC(C)CNC(=O)c1c(N)n(/N=C/c2cccnc2)c2nc3ccccc3nc12,active: 3.29 µM
21,Cc1nc2scc(C)n2c(=O)c1S(=O)(=O)NCC1CCN(Cc2ccc(F)cc2)CC1,inactive
22,COc1ccc(-n2nc3cc(N)c(Br)cc3n2)cc1,"inconclusive: 16.5 µM [inhibitor, partial curve, poor fit]"
23,O=C(Nc1ccccc1N1CCOCC1)c1ccc(Br)o1,"inconclusive: 18.5 µM [inhibitor, single point]"

row,Structure (SMILES),Potency
1,CN1C(c2ccccc2)CC(=NO)CC1c1ccccc1 (configuration not stated),"inconclusive: 13.1 µM [inhibitor, partial curve, poor fit]"
2,CC(C)N(C(=O)COC(=O)[C@@H]1CC(O)CN1S(=O)(=O)c1ccc(C(C)(C)C)cc1)C(C)C (some centres not stated),active: 6.57 µM
3,COc1ccccc1N1CCN(C(c2cccs2)C(C)NC(=O)c2ccco2)CC1 (configuration not stated),"inconclusive: 2.94 µM [inhibitor, full curve, poor fit]"
4,Cc1cc(OCC(=O)NCC(c2cccs2)N2CCOCC2)ccc1C(C)C (configuration not stated),active: 13.1 µM
5,COc1ccc(-c2cn[nH]c2-c2ccc(O)cc2O)cc1,"inconclusive: 13.1 µM [inhibitor, partial curve, poor fit]"
6,COc1ccc(-n2ncc3c(=O)n(CC(=O)Nc4ccc(S(=O)(=O)N5CCOCC5)cc4)cnc32)cc1,"inconclusive: 11.7 µM [inhibitor, single point]"
7,C=CCNC(=O)c1ccc(C)cc1Cl,"inconclusive: 4.15 µM [inhibitor, partial curve, poor fit]"
8,Cc1ccc(-n2c(SCC(=O)Nc3cccc(S(=O)(=O)NC4=NCCCCC4)c3)nc3ccccc3c2=O)cc1,active: 3.7 µM
9,O=[N+]([O-])c1cc(C(F)(F)F)cc([N+](=O)[O-])c1NCCNC(=S)Nc1cccc(F)c1,"inconclusive: 9.28 µM [inhibitor, single point]"
10,CCN(CC)CCCN(Cc1cc2ccc(C)c(C)c2[nH]c1=O)C(=O)NC1CCCCC1,active: 9.28 µM
11,Cc1ccccc1OCc1nc2ccccc2c(=O)n1/N=C/c1cn[nH]c1-c1ccccc1,"inconclusive: 11.7 µM [inhibitor, single point]"
12,CCN(CC)CCOC(=O)C1(c2ccccc2)CCOCC1,"inconclusive: 9.28 µM [inhibitor, partial curve, poor fit]"
13,O=C(CSc1nc2ccccc2c(=O)n1-c1ccccc1)N1CCCc2ccccc21,"inconclusive: 18.5 µM [inhibitor, single point]"
14,Cc1ccc(CSc2ccc3nnc(-c4cccnc4)n3n2)cc1,"inconclusive: 18.5 µM [inhibitor, single point]"
15,O=C(NCc1cccs1)Nc1cc(Cl)ccc1Cl,"inconclusive: 18.5 µM [inhibitor, single point]"
16,Cc1nc(Cc2nnc(SCC(=O)N3CCN(c4ccc(O)cc4)CC3)o2)cs1,"inconclusive: 18.5 µM [inhibitor, single point]"
17,Cc1ccccc1Cc1c(C)nc2c(C(=O)NCc3ccc4c(c3)OCO4)cnn2c1C,"inconclusive: 0.147 µM [inhibitor, full curve, poor fit]"
18,COc1ccc(S(=O)(=O)N(C)CC(=O)NCCCn2ccnc2)cc1Cl,inactive
19,COc1ccc2cc(/C=N/NC(=O)CSCc3ccc([N+](=O)[O-])cc3)c(Cl)nc2c1,"inconclusive: 13.1 µM [inhibitor, single point]"
20,CC1CCN(CCn2c(=S)[nH]c3cc4c(cc3c2=O)OCO4)CC1,"inconclusive: 18.5 µM [inhibitor, single point]"
21,O=C(CSC1=NCCS1)Nc1ccc(S(=O)(=O)N2CCCCCC2)cc1,"inconclusive: 6.57 µM [inhibitor, partial curve, poor fit]"
22,Cn1c(=O)cc(OCCCC(=O)NCc2ccc(F)cc2Cl)c2ccccc21,"inconclusive: 10.4 µM [inhibitor, single point]"
23,CCO[C@H]1OC(C(=O)N2CCN(C)CC2)=C[C@@H](c2ccc3c(c2)OCO3)[C@@H]1CCCO,"inconclusive: 1.85 µM [inhibitor, single point]"

row,Structure (SMILES),Potency
1,CC1=NN(c2ccccc2)C(=O)/C1=C\c1ccc(Br)s1,inactive
2,CC(C(=O)c1ccc(-c2ccccc2)cc1)[n+]1ccccc1 (configuration not stated),active: 2.33 µM
3,COC(=O)c1sc(NC(=S)NC(=O)c2ccccc2)nc1C,"inconclusive: 18.5 µM [inhibitor, single point]"
4,CCOCCOC(=O)c1ccc(-n2cncn2)nc1,"inconclusive: 14.7 µM [inhibitor, partial curve, poor fit]"
5,CC1CCN(S(=O)(=O)c2ccc(NC(=O)Cn3nnc(-c4ccccc4)n3)cc2)CC1,inactive
6,Cn1c(=O)oc2cc(S(=O)(=O)CCC(=O)N3CCN(c4ccccc4F)CC3)ccc21,"inconclusive: 18.5 µM [inhibitor, single point]"
7,CC(C)CC(N(C)C)C1(c2ccc(Cl)cc2)CCC1 (configuration not stated),inactive
8,O=C(/C=C/c1ccc(-c2ccccc2)cc1)NCc1cccnc1,"inconclusive: 11.7 µM [inhibitor, partial curve, poor fit]"
9,CCC1CCCCN1CCCNC(=O)c1ccc2nc(N3CCCCC3)sc2c1 (configuration not stated),"inconclusive: 4.65 µM [inhibitor, partial curve, poor fit]"
10,COC(=O)c1c(NC(=O)CN(c2ccc(C)c(C)c2)S(C)(=O)=O)sc2c1CCCC2,"inconclusive: 18.5 µM [inhibitor, single point]"
11,COc1ccc(CNC(=O)CCc2c[nH]c3ccccc23)cc1,inactive
12,CC(C)CC(=O)NC(=S)NNC(=O)c1ccc(NC(=O)C2CCCCC2)cc1,active: 13.1 µM
13,CCOc1ccccc1CN1C(=O)C2(OCCO2)c2ccccc21,"inconclusive: 4.15 µM [inhibitor, single point]"
14,Cc1c(C(=O)N2CCCCC2)c(S(=O)(=O)N(C)Cc2ccccc2)c(C)n1C,"inconclusive: 13.1 µM [inhibitor, single point]"
15,CCOc1ccc(NC(=O)CSc2ccc(-c3cccnc3)nn2)cc1,active: 5.86 µM
16,CCC(C)OC(=O)n1ccc(C(=O)Nc2nccs2)n1 (configuration not stated),inactive
17,Cc1ccc(NC(=S)Nc2ccc(OC(F)F)c(Cl)c2)cc1F,"inconclusive: 11.7 µM [inhibitor, single point]"
18,CCCOc1ccc(C2(C(=O)O)CCCC2)cc1,"inconclusive: 18.5 µM [inhibitor, single point]"
19,CNC(=O)[C@@]1(C)C=C[C@@H](Cc2ccccc2)N1C(=O)OC,inactive
20,O=C(Nc1ccc(Cc2ccncc2)cc1)c1ccc(Cl)c([N+](=O)[O-])c1,"inconclusive: 0.0026 µM [inhibitor, full curve, poor fit]"
21,Cn1c(SCC(=O)OCC(=O)c2ccccc2)nnc1-c1cccs1,"inconclusive: 18.5 µM [inhibitor, single point]"

# Source: PubChem BioAssay AID504834 (National Center for Advancing Translational Sciences (NCATS), 2011)
